# Experimental data published in PubChem BioAssay AID504327 (National Center for Advancing Translational Sciences (NCATS), 2011).
# The chains behind the UniProt entries cited, without tags or fusion partners.
# UniProt Q92830, whole entry, looked up: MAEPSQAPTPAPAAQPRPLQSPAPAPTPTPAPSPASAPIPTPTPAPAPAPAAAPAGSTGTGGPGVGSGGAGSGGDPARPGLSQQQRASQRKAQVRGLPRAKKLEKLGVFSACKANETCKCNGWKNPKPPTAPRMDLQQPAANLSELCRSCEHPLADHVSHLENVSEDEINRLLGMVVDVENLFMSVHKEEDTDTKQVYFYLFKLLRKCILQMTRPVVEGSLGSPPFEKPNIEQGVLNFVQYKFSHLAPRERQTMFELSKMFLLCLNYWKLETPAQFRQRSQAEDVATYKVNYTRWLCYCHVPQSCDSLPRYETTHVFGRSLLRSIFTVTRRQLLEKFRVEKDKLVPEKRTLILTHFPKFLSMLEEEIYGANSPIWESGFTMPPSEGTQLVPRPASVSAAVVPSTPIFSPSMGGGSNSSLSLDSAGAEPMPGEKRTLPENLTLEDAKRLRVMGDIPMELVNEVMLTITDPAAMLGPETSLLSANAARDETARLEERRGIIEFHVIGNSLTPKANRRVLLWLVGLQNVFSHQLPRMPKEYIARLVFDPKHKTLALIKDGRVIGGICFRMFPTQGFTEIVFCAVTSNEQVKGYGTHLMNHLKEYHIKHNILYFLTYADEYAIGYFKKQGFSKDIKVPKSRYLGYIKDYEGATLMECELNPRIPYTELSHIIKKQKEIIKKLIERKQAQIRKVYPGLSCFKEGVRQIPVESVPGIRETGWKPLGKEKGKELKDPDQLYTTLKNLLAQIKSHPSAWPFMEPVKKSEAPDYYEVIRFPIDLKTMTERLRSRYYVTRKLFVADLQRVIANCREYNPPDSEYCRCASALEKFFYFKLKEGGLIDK
# About 820 (0.21%) of roughly 390,000 compounds were called active. Inconclusive results, whose numbers are uncertain, are shown with a selection of clear calls. Calls follow the shape of the dose curve; as a rule, active = well fitted inhibition curve with a large enough effect; inconclusive = small, poorly fitted or top-dose-only effect, or another doubt; inactive = no such curve, though single readings can be large or run the other way. Potencies of inconclusive entries are doubtful fits and often do not repeat.
# Biological target: Histone acetyltransferase KAT2A (Homo sapiens) (UniProt Q92830)
# Test: qHTS Assay for Inhibitors of GCN5L2
# Conditions: GCN5L2 HAT assay, ThioGlo1 CoA-SH fluorescence; series mostly up to 58.9 µM
# Procedure, shortened: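 Compounds, pin-transferred from DMSO stocks, meet 20nM GCN5L2 for 15 min before the reaction begins with H3(1-25) peptide (75uM) and acetyl-CoA (70uM). Thiol-reactive ThioGlo1 reports CoA release over 20 min at room temperature.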
# Potency is read from the fitted curve at half-maximal effect.
row,Structure (SMILES),Potency
1,COc1cccc(Nc2nc(N)c([N+](=O)[O-])c(N3CCOCC3)n2)c1,"inconclusive: 35.5 µM [inhibitor, single point]"
2,Nn1c(SCC(=O)Nc2c(Cl)cccc2Cl)nncc1=O,"inconclusive: 0.794 µM [inhibitor, single point]"
3,CC1CC(=O)Nc2ccccc2N1C(=O)Nc1ccc(F)cc1F (stereo not drawn),"inconclusive: 0.708 µM [inhibitor, full curve, poor fit]"
4,CCOc1ccc(N2C(=O)CC(Sc3nnnn3-c3ccccc3)C2=O)cc1 (stereo not drawn),inactive
5,Cc1ccc(N)cc1NC(=O)CN1CCOCC1,"inconclusive: 4.47 µM [inhibitor, single point]"
6,COc1ccc2[nH]c(=O)c(CN(CC3CCCO3)C(=O)Nc3ccc(F)cc3)cc2c1 (stereo not drawn),"inconclusive: 39.8 µM [inhibitor, single point]"
7,Cc1ccc(S(=O)(=O)N2[C@@H](c3ccc(Br)cc3)C(C(=O)O)=CC[C@H]2c2ccc(C(C)C)cc2)cc1,"inconclusive: 39.8 µM [inhibitor, single point]"
8,CN(C)c1oc(/C=C/c2ccccc2)nc1C#N,"inconclusive: 25.1 µM [inhibitor, partial curve]"
9,CCOc1ccccc1N(CC(=O)Nc1ccccc1)S(=O)(=O)c1ccccc1,"inconclusive: 35.5 µM [inhibitor, single point]"
10,Fc1ccccc1N1CCN(c2ncnc3c2nc2n3CCCCC2)CC1,inactive
11,CCN1CCN(CCOc2ccccc2OCc2ccccc2)CC1,inactive
12,CCCCCn1c2nc3ccccc3nc2c2c(=O)n(CC(C)C)cnc21,"inconclusive: 35.5 µM [inhibitor, single point]"
13,CCOC(=O)C1CCN(c2ncnc3c(C)csc23)CC1,"inconclusive: 39.8 µM [inhibitor, single point]"
14,S=c1[nH]nc(-c2cccc(Cl)c2)n1Cc1ccccc1,inactive
15,COC(=O)c1ccc2[nH]cc(CCO)c2c1,"inconclusive: 39.8 µM [inhibitor, single point]"
16,C=CCOc1c(Br)cc(CNn2nnnc2N)cc1OCC,"inconclusive: 28.2 µM [inhibitor, single point]"
17,Cc1cc(C)c2c(n1)SCC(=O)N2CC(=O)Nc1ccc(C)c(C)c1,"inconclusive: 0.631 µM [inhibitor, full curve, poor fit]"
18,CCCC(=O)Nc1ccc2nc(SCC(=O)N3CCCC3)sc2c1,"inconclusive: 31.6 µM [inhibitor, partial curve]"
19,C[N+](C)(C)CCOC(N)=O,"inconclusive: 39.8 µM [inhibitor, single point]"
20,CCOc1c(Br)cc(/C=C(\C#N)C(=O)NC2CC2)cc1OC,"inconclusive: 0.708 µM [inhibitor, single point]"
21,CCNc1ncc2nc(-c3ccc(Cl)cc3)c(=O)n(-c3ccccc3)c2n1,"inconclusive: 39.8 µM [inhibitor, single point]"
22,CCN(C(=O)c1ccc(Cl)c(S(=O)(=O)Nc2c(C)n(C)n(-c3ccccc3)c2=O)c1)c1ccccc1,inactive
23,Cc1c(C)c2c(OCC(=O)N[C@@H](C(=O)O)c3ccccc3)cc3c(c2oc1=O)CCC(C)(C)O3,"inconclusive: 22.4 µM [inhibitor, single point]"

row,Structure (SMILES),Potency
1,O=c1oc(-c2cccs2)nc2c1cnn2-c1ccccc1,"inconclusive: 39.8 µM [inhibitor, single point]"
2,Cc1cccc(-n2ccc(=O)c(C(=O)Nc3ccc(S(=O)(=O)Nc4nccc(C)n4)cc3)n2)c1,"inconclusive: 0.562 µM [inhibitor, full curve, poor fit]"
3,CC[N+](CC)(CCO)CCCN1C(=O)C2CC=C(Cl)CC2C1=O (stereo not drawn),"inconclusive: 39.8 µM [inhibitor, single point]"
4,Cc1nc2sccn2c(=O)c1CCN1CCC(=C(c2ccc(F)cc2)c2ccc(F)cc2)CC1,"inconclusive: 39.8 µM [inhibitor, single point]"
5,Cc1[nH]c(=O)c(C#N)c(C)c1Cl,inactive
6,COc1cc(NC(=O)c2ccccc2)c(OC)cc1NC(=O)Cc1cccs1,"inconclusive: 35.5 µM [inhibitor, single point]"
7,COCCN(C(=O)c1ccc(-c2ccc(Cl)cc2)o1)c1c(N)n(Cc2ccccc2)c(=O)[nH]c1=O,inactive
8,CC(=O)c1ccc(Oc2cc(C)nc(NCc3ccccc3)n2)cc1,inactive
9,CCOC(=O)c1cc(C#N)c(N2CCCC2)nc1-c1ccccc1,"inconclusive: 15.8 µM [inhibitor, partial curve]"
10,CC(=O)c1ccc(NC(=O)C(C)n2nc(-c3ccccc3)c3cc(Cl)ccc32)cc1 (stereo not drawn),inactive
11,Cc1ccc(N2CCN(C(=O)c3ccccc3NC(=O)/C=C\C(=O)O)CC2)cc1,"inconclusive: 39.8 µM [inhibitor, single point]"
12,CCCOc1ccc(C(=O)N2CC3(CC(c4cccc(NC(=O)[C@@H]5CCC(=O)N5)c4)=NO3)C[C@H]2C(=O)NC2(C(N)=O)CC2)cc1 (stereo partly drawn),"inconclusive: 0.158 µM [inhibitor, full curve, poor fit]"
13,Nc1ccccc1NC(=O)c1ccccc1N,"inconclusive: 28.2 µM [inhibitor, single point]"
14,O=C(Cn1cnc2ccc(Cl)cc2c1=O)c1cccs1,"inconclusive: 31.6 µM [inhibitor, single point]"
15,CC1=CCC2C(=O)N(c3ccc(N4CCOCC4)cc3)C(=O)C2C1 (stereo not drawn),"inconclusive: 7.94 µM [inhibitor, single point]"
16,COc1ccc(N2CCN(S(=O)(=O)c3ccc4c(c3)CCCN4C(C)=O)CC2)cc1,inactive
17,Cc1ccc(NC(=O)c2cc(N3C(=O)C4CC=CCC4C3=O)ccc2N2CCOCC2)cc1Cl (stereo not drawn),inactive
18,Cc1cccc(N2CCN(c3nc4ccc(C(=O)c5ccccc5)cc4n4cnnc34)CC2C)c1 (stereo not drawn),inactive
19,O=C(Nn1cnnc1)c1cc(Cl)cc(Cl)c1,"inconclusive: 39.8 µM [inhibitor, single point]"
20,Cc1ccc(-c2nc3ccccc3n3nnnc23)cc1,inactive
21,CCCCSc1nc(CCC)cc(=O)[nH]1,inactive
22,CS(=O)(=O)Nc1ccc(C(=O)Nc2ccc3c(c2)OCCO3)cc1,"inconclusive: 35.5 µM [inhibitor, single point]"
23,O=C(CN1CCN(c2ccc(O)cc2)CC1)Nc1ccccc1C(=O)NCCc1ccccc1,"inconclusive: 39.8 µM [inhibitor, single point]"

row,Structure (SMILES),Potency
1,COCCn1c(=O)c(-c2ccccc2)nc2cnc(N3CCNCC3)nc21,"inconclusive: 31.6 µM [inhibitor, single point]"
2,Cc1cccc(OCC(=O)N(Cc2ccco2)C2CCS(=O)(=O)C2)c1C (stereo not drawn),"inconclusive: 0.891 µM [inhibitor, full curve, poor fit]"
3,C[C@H]1[C@H](C)CC[C@]2(C)CC[C@]3(C)C(=CC[C@@H]4[C@@]5(C)CC[C@@H](O)[C@](C)(C(=O)O)[C@@H]5CC[C@]43C)[C@H]12,"inconclusive: 14.1 µM [inhibitor, partial curve]"
4,COc1ccc(N2Cc3cccc(C(=O)Nc4ccc(C)cc4)c3C2=O)cc1,"inconclusive: 28.2 µM [inhibitor, single point]"
5,Cc1ccccc1C(=O)NC(=S)NCC1CCCO1 (stereo not drawn),active: 2.51 µM
6,COc1ccc(CC(=O)NCc2ccc(Cl)cc2)cc1S(=O)(=O)N1CCOCC1,inactive
7,Cc1ccccc1OCCSc1nc2ccccc2n1CCC(=O)O,"inconclusive: 3.98 µM [inhibitor, partial curve]"
8,COc1cccc2cc(C(=O)NCCN3CCOCC3)c(=O)oc12,"inconclusive: 7.08 µM [inhibitor, single point]"
9,COc1ccc(-n2nc3c(c2NC(=O)c2ccc(N4C(=O)CCC4=O)cc2)CSC3)cc1,"inconclusive: 39.8 µM [inhibitor, single point]"
10,C[n+]1ccccc1/C=C/c1c(F)cccc1F,"inconclusive: 39.8 µM [inhibitor, single point]"
11,Cc1cccc(N2C(=O)N3[C@H](c4ccc(F)cc4)[C@@H]4C(=O)N(C5CCCCC5)C(=O)[C@@H]4[C@]3(Cc3ccc(Cl)cc3)C2=O)c1,"inconclusive: 3.55 µM [inhibitor, single point]"
12,CC(C)NC(=O)C(=O)c1cn(C)c2ccccc12,inactive
13,CCc1ccc(NC(=O)CSc2nc3cc(C(=O)OC)ccc3c(=O)n2Cc2ccco2)cc1,"inconclusive: 25.1 µM [inhibitor, single point]"
14,COc1cc(-c2nn3c(-c4ccco4)nnc3s2)cc(OC)c1OC,inactive
15,CCc1nnc(NS(=O)(=O)c2ccc(NC(=O)/C=C/c3ccc(OC)cc3OC)cc2)s1,inactive
16,Cc1sccc1C1C(C#N)=C(N)SC(N)=C1C#N,inactive
17,O=c1[nH]c(/C=C\c2ccccc2F)nc(O)c1[N+](=O)[O-],inactive
18,COc1ccc2c(c1)C(c1ccccc1OC)CC(=O)O2 (stereo not drawn),"inconclusive: 31.6 µM [inhibitor, single point]"
19,Cc1ccc(-c2nn(-c3ccccc3)cc2C(=O)O)o1,"inconclusive: 22.4 µM [inhibitor, partial curve]"
20,CCOC(=O)c1cnc2ccc(C)cc2c1Sc1ccccc1C(=O)OC,"inconclusive: 5.62 µM [inhibitor, single point]"
21,C=CCOc1ccc(C(c2c(C(=O)O)[nH]c3ccccc23)c2c(C(=O)O)[nH]c3ccccc23)cc1,"inconclusive: 0.447 µM [inhibitor, full curve, poor fit]"
22,COc1cccc(C(=O)N(Cc2ccccc2)Cc2cc3cc4c(cc3[nH]c2=O)OCCO4)c1,"inconclusive: 20 µM [inhibitor, single point]"

# Entries from the list above that have two or more sulfur atoms (3):
row,Structure (SMILES),Potency
18,CCCC(=O)Nc1ccc2nc(SCC(=O)N3CCCC3)sc2c1,"inconclusive: 31.6 µM [inhibitor, partial curve]"
15,CCc1nnc(NS(=O)(=O)c2ccc(NC(=O)/C=C/c3ccc(OC)cc3OC)cc2)s1,inactive
16,Cc1sccc1C1C(C#N)=C(N)SC(N)=C1C#N,inactive
